The record followed here is PMC5946489.

Protein sequences, listed by entry. Tags and fused reporters are not part of them. Lines headed by an entry give the natural chain unless they say otherwise; changes in a name come on top.
UniProt P15976: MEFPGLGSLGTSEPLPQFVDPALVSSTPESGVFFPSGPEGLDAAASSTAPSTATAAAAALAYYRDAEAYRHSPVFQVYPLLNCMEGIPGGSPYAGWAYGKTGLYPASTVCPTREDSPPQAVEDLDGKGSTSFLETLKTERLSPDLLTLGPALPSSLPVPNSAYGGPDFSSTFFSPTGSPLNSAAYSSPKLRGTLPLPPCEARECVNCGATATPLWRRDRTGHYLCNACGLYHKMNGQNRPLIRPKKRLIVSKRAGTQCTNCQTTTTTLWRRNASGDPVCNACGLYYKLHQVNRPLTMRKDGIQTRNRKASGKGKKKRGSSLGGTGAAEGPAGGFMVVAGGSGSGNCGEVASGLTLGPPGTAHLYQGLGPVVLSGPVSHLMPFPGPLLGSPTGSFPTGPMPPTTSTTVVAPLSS

The target in data set [1] is T1, GATA2-3F (UniProt P23769).
T1 sequence (looked up, limits assumed): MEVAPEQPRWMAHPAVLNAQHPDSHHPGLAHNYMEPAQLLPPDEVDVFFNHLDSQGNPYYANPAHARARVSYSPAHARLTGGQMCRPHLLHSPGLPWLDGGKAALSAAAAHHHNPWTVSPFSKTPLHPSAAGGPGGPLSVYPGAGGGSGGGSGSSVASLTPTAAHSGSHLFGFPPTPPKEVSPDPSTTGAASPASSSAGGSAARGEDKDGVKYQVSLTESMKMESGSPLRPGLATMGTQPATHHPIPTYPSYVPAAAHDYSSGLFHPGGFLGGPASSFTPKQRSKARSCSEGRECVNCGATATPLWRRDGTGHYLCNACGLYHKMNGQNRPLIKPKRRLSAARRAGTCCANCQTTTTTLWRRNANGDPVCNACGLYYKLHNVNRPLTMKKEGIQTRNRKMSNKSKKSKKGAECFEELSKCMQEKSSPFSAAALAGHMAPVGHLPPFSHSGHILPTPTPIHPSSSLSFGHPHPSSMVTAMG
The data set is described as follows: DNA pull-down, Western blot. The conditions noted are these: Pull-down: probes immobilised on M-280 beads in 5 mM Tris-HCl pH 7.5, 0.5 mM EDTA, 1 M NaCl; 100 ug nuclear extract; protein in a lysate after overexpression; protein details: FLAG (3F); label: 5'-biotin.

Data set [2] addresses GATA1-3F (UniProt P15976). The experiment in a line: DNA pull-down, Western blot. The following applies: Pull-down: probes immobilised on M-280 beads in 5 mM Tris-HCl pH 7.5, 0.5 mM EDTA, 1 M NaCl; 100 ug nuclear extract; protein in a lysate after overexpression; protein details: FLAG (3F); label: 5'-biotin.

For at least one entry, the source does not settle the construct or the ends of the probe. Results from cells or extracts need not show a direct contact. Weaker means in comparison with the reference protein, sequence or condition of that experiment. For some of these results: Tags and fusion partners may be left off the protein sequences shown.

On to “CTGCCGAAGCTTGGTGCTCGC (double strand) [GATA1/2 MT probe]”, for which the binding result in data set [1] and in data set [2] was “binds more weakly” in each case.

Regarding “CTGCCGCCGATTGGTGCTCGC (double strand) [GATA1/2 WT probe]”, the binding result in data set [1] and in data set [2] was “binds” in each case.
